Experimental data as given in publication PMC10939015.
No constants are given. Whether binding was seen depends on the method and setting. In cells and extracts the contact can be indirect. Some binding calls cover weakened binding; strength is not graded here.

Target: PCNA (human (endogenous in HeLa Kyoto)), P12004
Assay: proximity ligation; Duolink in situ PLA (anti-rabbit PLUS and anti-mouse MINUS probes) on fixed HeLa Kyoto cells, S-phase cells; control, or 10 mM HU for 1 h, or 150 µM APH for 30 min before fixation
Details: remark: other sources report otherwise

binding: binds
B1: Timeless, Q9UNS1 1-1208 (protein)
chain: MDLHMMNCELLATCSALGYLEGDTYHKEPDCLESVKDLIRYLRHEDETRDVRQQLGAAQILQSDLLPILTQHHQDKPLFDAVIRLMVNLTQPALLCFGNLPKEPSFRHHFLQVLTYLQAYKEAFASEKAFGVLSETLYELLQLGWEERQEEDNLLIERILLLVRNILHVPADLDQEKKIDDDASAHDQLLWAIHLSGLDDLLLFLASSSAEEQWSLHVLEIVSLMFRDQNPEQLAGVGQGRLAQERSADFAELEVLRQREMAEKKTRALQRGNRHSRFGGSYIVQGLKSIGERDLIFHKGLHNLRNYSSDLGKQPKKVPKRRQAARELSIQRRSALNVRLFLRDFCSEFLENCYNRLMGSVKDHLLREKAQQHDETYYMWALAFFMAFNRAASFRPGLVSETLSVRTFHFIEQNLTNYYEMMLTDRKEAASWARRMHLALKAYQELLATVNEMDISPDEAVRESSRIIKNNIFYVMEYRELFLALFRKFDERCQPRSFLRDLVETTHLFLKMLERFCRSRGNLVVQNKQKKRRKKKKKVLDQAIVSGNVPSSPEEVEAVWPALAEQLQCCAQNSELSMDSVVPFDAASEVPVEEQRAEAMVRIQDCLLAGQAPQALTLLRSAREVWPEGDVFGSQDISPEEEIQLLKQILSAPLPRQQGPEERGAEEEEEEEEEEEEELQVVQVSEKEFNFLDYLKRFACSTVVRAYVLLLRSYQQNSAHTNHCIVKMLHRLAHDLKMEALLFQLSVFCLFNRLLSDPAAGAYKELVTFAKYILGKFFALAAVNQKAFVELLFWKNTAVVREMTEGYGSLDDRSSSRRAPTWSPEEEAHLRELYLANKDVEGQDVVEAILAHLNTVPRTRKQIIHHLVQMGLADSVKDFQRKGTHIVLWTGDQELELQRLFEEFRDSDDVLGHIMKNITAKRSRARIVDKLLALGLVAERRELYKKRQKKLASSILPNGAESLKDFCQEDLEEEENLPEEDSEEEEEGGSEAEQVQGSLVLSNENLGQSLHQEGFSIPLLWLQNCLIRAADDREEDGCSQAVPLVPLTEENEEAMENEQFQQLLRKLGVRPPASGQETFWRIPAKLSPTQLRRAAASLSQPEEEQKLQPELQPKVPGEQGSDEEHCKEHRAQALRALLLAHKKKAGLASPEEEDAVGKEPLKAAPKKRQLLDSDEEQEEDEGRNRAPELGAPGIQKKKRYQIEDDEDD
